Publication PMC3519869
No constants are given. Whether binding was seen depends on the method and setting. Binding seen in cells or lysates may run through a third protein. A yes stands for co-enrichment or nearness to the bait. Other partners may have been found. Values belong to the molecule of their own block, whether it stands above or below them.

Protein sequences, listed by entry. Tags and fused reporters are not part of them.
UniProt Q8N6T7: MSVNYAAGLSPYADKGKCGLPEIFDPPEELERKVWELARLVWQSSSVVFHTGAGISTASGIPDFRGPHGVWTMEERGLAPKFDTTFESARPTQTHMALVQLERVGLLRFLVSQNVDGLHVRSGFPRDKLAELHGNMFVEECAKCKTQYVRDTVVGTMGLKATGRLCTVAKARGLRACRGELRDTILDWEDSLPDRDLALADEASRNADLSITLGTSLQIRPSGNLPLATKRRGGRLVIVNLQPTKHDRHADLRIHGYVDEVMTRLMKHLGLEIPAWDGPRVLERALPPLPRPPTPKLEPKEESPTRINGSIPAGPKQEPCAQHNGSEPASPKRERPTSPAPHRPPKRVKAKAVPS
UniProt O60264: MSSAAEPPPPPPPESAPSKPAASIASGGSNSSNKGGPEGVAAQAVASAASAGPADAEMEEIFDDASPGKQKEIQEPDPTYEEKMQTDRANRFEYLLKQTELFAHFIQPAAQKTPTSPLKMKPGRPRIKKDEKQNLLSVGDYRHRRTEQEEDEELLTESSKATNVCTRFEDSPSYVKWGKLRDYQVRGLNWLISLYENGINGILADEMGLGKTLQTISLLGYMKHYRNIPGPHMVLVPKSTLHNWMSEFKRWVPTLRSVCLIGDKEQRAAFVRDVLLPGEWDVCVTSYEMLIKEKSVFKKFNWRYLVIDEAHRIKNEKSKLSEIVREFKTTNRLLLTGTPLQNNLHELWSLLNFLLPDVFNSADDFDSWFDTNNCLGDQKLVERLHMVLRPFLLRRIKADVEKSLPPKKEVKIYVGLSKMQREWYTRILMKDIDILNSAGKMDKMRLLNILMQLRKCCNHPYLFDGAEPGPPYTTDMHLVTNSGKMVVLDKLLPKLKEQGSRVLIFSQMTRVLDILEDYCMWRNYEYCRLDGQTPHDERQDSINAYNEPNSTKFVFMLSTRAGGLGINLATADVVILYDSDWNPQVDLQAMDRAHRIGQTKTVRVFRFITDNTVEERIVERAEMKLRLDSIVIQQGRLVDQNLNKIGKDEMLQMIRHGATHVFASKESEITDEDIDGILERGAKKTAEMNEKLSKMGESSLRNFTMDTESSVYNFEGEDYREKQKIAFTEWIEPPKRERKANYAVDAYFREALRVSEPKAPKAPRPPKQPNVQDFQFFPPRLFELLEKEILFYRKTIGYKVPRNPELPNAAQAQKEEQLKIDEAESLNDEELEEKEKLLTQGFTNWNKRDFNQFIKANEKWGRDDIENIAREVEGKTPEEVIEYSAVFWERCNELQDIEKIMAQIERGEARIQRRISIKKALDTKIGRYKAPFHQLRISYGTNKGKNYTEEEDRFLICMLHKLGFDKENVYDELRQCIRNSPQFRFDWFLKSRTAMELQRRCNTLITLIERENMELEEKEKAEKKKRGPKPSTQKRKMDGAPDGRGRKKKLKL

Target: Flag-tagged wild type SIRT6 (human) (UniProt Q8N6T7)
Test: affinity purification with mass spectrometry; anti-Flag immunoprecipitate of Flag-SIRT6 from HEK293 cells run on SDS-PAGE, Coomassie-stained bands excised and sequenced by LC MS/MS, MASCOT search

- binding: binds
Molecule: SMARCA5 (from UniProt O60264 1-1052)

- binding: binds
B1: MYB-binding protein 1A (MYBBP1A) (protein, UniProt Q9BQG0 1-1328)
chain: MESRDPAQPMSPGEATQSGARPADRYGLLKHSREFLDFFWDIAKPEQETRLAATEKLLEYLRGRPKGSEMKYALKRLITGLGVGRETARPCYSLALAQLLQSFEDLPLCSILQQIQEKYDLHQVKKAMLRPALFANLFGVLALFQSGRLVKDQEALMKSVKLLQALAQYQNHLQEQPRKALVDILSEVSKATLQEILPEVLKADLNIILSSPEQLELFLLAQQKVPSKLKKLVGSVNLFSDENVPRLVNVLKMAASSVKKDRKLPAIALDLLRLALKEDKFPRFWKEVVEQGLLKMQFWPASYLCFRLLGAALPLLTKEQLHLVMQGDVIRHYGEHVCTAKLPKQFKFAPEMDDYVGTFLEGCQDDPERQLAVLVAFSSVTNQGLPVTPTFWRVVRFLSPPALQGYVAWLRAMFLQPDLDSLVDFSTNNQKKAQDSSLHMPERAVFRLRKWIIFRLVSIVDSLHLEMEEALTEQVARFCLFHSFFVTKKPTSQIPETKHPFSFPLENQAREAVSSAFFSLLQTLSTQFKQAPGQTQGGQPWTYHLVQFADLLLNHSHNVTTVTPFTAQQRQAWDRMLQTLKELEAHSAEARAAAFQHLLLLVGIHLLKSPAESCDLLGDIQTCIRKSLGEKPRRSRTKTIDPQEPPWVEVLVEILLALLAQPSHLMRQVARSVFGHICSHLTPRALQLILDVLNPETSEDENDRVVVTDDSDERRLKGAEDKSEEGEDNRSSESEEESEGEESEEEERDGDVDQGFREQLMTVLQAGKALGGEDSENEEELGDEAMMALDQSLASLFAEQKLRIQARRDEKNKLQKEKALRRDFQIRVLDLVEVLVTKQPENALVLELLEPLLSIIRRSLRSSSSKQEQDLLHKTARIFTHHLCRARRYCHDLGERAGALHAQVERLVQQAGRQPDSPTALYHFNASLYLLRVLKGNTAEGCVHETQEKQKAGTDPSHMPTGPQAASCLDLNLVTRVYSTALSSFLTKRNSPLTVPMFLSLFSRHPVLCQSLLPILVQHITGPVRPRHQACLLLQKTLSMREVRSCFEDPEWKQLMGQVLAKVTENLRVLGEAQTKAQHQQALSSLELLNVLFRTCKHEKLTLDLTVLLGVLQGQQQSLQQGAHSTGSSRLHDLYWQAMKTLGVQRPKLEKKDAKEIPSATQSPISKKRKKKGFLPETKKRKKRKSEDGTPAEDGTPAATGGSQPPSMGRKKRNRTKAKVPAQANGTPTTKSPAPGAPTRSPSTPAKSPKLQKKNQKPSQVNGAPGSPTEPAGQKQHQKALPKKGVLGKSPLSALARKKARLSLVIRSPSLLQSGAKKKAQVRKAGKP
